This assay has as its system C3AKF1 mice, hamster liver cystadenocarcinoma s.c., tumor weight T/C. Nature of the assay: NCI In Vivo Anticancer Drug Screen. Data for tumor model Cystadenocarcinoma, Liver (No. 1) (Hamster) (subcutaneous) in C3AKF1 (CHKRF1) mice. Conditions: T/C endpoint: mean tumor weight, schedule: Q01DX010 (ip), higher T/C = larger tumour. The protocol: The antitumor activity of compounds was measured in mice bearing transplantable tumors. Survival or tumor size were measured and the results are expressed as the measurement made in the treated group (T) divided by the measurement made in the vehicle treated control group (C). The tumor model used in this assay is Cystadenocarcinoma, Liver (No. 1) (Hamster) (subcutaneous) in C3AKF1 (CHKRF1) mice

T/C and survivor count data for four compounds are collected here from PubChem BioAssay AID234 (DTP/NCI, 2004).

The list is a part of this screen's results and no random one: it gathers some chemical classes. Not every dose and run of a compound is shown. T/C: endpoint of the treated group in % of that of the vehicle group. Schedules are NCI's codes, taken here to give the interval after Q, in days (D) or hours (H), and the number of doses after X. Some doses were run more than once; the results are listed from low to high. Some entries show no survivor count and are marked so; the dose need not have been tolerated. Marks such as (2×) count equal records among those shown. Some T/C values are followed by the survivors on the day toxicity was checked; where neither a count nor a note follows, no animal had died by that day. Some doses have a count of surviving animals in place of a T/C: the source files T/C as zero there, which appears to mark a toxic dose or a test without result, not a measured value. Counts of survivors are from the toxicity check, whose day is not always given; animals may have died later.

In the case of `O[C@H](CNCCBr)[C@@H](O)CNCCBr`, the T/C is 107 % of control (dose: 0.2 mg/kg/injection, vehicle: saline, evaluated on day 15); 74 % of control [5 of 6 alive] (dose: 0.5 mg/kg/injection, vehicle: saline, evaluated on day 15); 54 and 73 % of control (dose: 1.0 mg/kg/injection, vehicle: saline, evaluated on day 15); 65 [5 of 6 alive] and 88 % of control [6 of 7 alive] (dose: 2.0 mg/kg/injection, vehicle: saline, evaluated on day 15); 62 % of control [6 of 7 alive] (dose: 4.0 mg/kg/injection, vehicle: saline, evaluated on day 15). Further, under “dose: 8.0 mg/kg/injection, vehicle: saline”, the survivor count is 0 of 7.
As to `BrCc1cccc(CBr)c1`, the T/C is, setting by setting: (dose: 1.25 mg/kg/injection, vehicle: carboxymethylcellulose (CMC), evaluated on day 15) 101 % of control; (dose: 2.5 mg/kg/injection, vehicle: carboxymethylcellulose (CMC), evaluated on day 15) 115 % of control; (dose: 5.0 mg/kg/injection, vehicle: carboxymethylcellulose (CMC), evaluated on day 15) 117 % of control. Moreover, the survivor count (dose: 10.0 mg/kg/injection, vehicle: carboxymethylcellulose (CMC)) is 0 of 6.
With `N/C(=N\[N+](=O)[O-])N(CCO[N+](=O)[O-])N=O`, the T/C by setting is: (dose: 3.75 mg/kg/injection, vehicle: carboxymethylcellulose (CMC), evaluation day not shown) 75 % of control [survivor count not shown]; (dose: 7.5 mg/kg/injection, vehicle: carboxymethylcellulose (CMC), evaluation day not shown) 65 % of control [survivor count not shown]; (dose: 15.0 mg/kg/injection, vehicle: carboxymethylcellulose (CMC), evaluation day not shown) 79 % of control [survivor count not shown] (2×); (dose: 30.0 mg/kg/injection, vehicle: carboxymethylcellulose (CMC), evaluation day not shown) 89 [survivor count not shown] and 124 % of control [survivor count not shown]; (dose: 60.0 mg/kg/injection, vehicle: carboxymethylcellulose (CMC), evaluation day not shown) 84 % of control [survivor count not shown].
For `CCOC(=O)COc1ccc(N(CCCl)CCCl)cc1`, the T/C is, setting by setting: (dose: 2.0 mg/kg/injection, vehicle: carboxymethylcellulose (CMC), evaluated on day 15) 150 % of control; (dose: 4.0 mg/kg/injection, vehicle: carboxymethylcellulose (CMC), evaluated on day 15) 84 % of control; (dose: 8.0 mg/kg/injection, vehicle: carboxymethylcellulose (CMC), evaluated on day 15) 74 % of control; (dose: 16.0 mg/kg/injection, vehicle: carboxymethylcellulose (CMC), evaluated on day 15) 31 % of control [4 of 6 alive].
